These are yes or no findings as the source states them, for the method shown. Binding can be weak; no strength is given.

By UniProt entry, the sequences of proteins in these tests, tags left out. Where a name states a change or a piece, a line headed by the entry shows the natural chain unless it says otherwise.
UniProt P06453: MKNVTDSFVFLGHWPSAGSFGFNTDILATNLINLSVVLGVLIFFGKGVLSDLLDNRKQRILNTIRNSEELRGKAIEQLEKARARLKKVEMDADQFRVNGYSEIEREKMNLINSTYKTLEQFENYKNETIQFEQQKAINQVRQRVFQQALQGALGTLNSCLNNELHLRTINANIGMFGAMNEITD

The test has as its target T1, cATPase subunit II, dephosphorylated enzyme (Spinacia oleracea) (UniProt P31853).
T1 sequence: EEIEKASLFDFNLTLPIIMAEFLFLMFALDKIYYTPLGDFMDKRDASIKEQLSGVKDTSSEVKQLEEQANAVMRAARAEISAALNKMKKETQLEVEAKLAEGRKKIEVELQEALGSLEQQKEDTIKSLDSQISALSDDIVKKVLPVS
Briefly: cross-linking; comparative: dephosphorylated cATPase (calf intestinal alkaline phosphatase, 37 °C) cross-linked with 2.5 mM deuterated BS3, untreated cATPase with non-deuterated BS3, pooled; areas of extracted ion chromatograms of heavy and light cross-links compared; both purified.

In the case of “chloroplast ATP synthase (cATPase) subunit I (from UniProt P06453)”, the binding entry is given as “binds”.

Source of the values: publication PMC3709506.
